# Measured values reported in patent US20060067886A1, “Gastrin receptor-avid peptide conjugates” (priority 1997, published 2006).
# By UniProt entry, the sequences of proteins in these tests, tags left out. Where a name states a change or a piece, a line headed by the entry shows the natural chain unless it says otherwise.
# UniProt P30550: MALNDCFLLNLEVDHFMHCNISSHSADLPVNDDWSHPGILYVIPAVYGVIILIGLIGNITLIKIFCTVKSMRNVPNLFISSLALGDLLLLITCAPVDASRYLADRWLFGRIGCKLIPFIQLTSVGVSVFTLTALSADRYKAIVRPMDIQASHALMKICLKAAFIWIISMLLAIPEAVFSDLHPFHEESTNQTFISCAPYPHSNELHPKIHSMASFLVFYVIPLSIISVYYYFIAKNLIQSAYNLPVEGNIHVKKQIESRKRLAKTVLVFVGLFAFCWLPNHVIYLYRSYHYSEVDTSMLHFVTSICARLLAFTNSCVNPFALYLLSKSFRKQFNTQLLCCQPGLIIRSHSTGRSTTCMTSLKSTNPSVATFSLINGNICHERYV
# Assays:
# in vivo [1] = details: SCID, mouse, iv, 4 uCi, total radioactivity; for tissue uptake dose at 72 h: Avg % ID; for tissue uptake at 0.25 h: 15 min
# Experimental: In vivo pharmacokinetic studies in human tumor bearing SCID mice. […] The xenograft models were produced by bilateral flank inoculation of 5×10^6 cells (PC-3 or MDA-MB-231 cells) per site. Four to six weeks post inoculation, palpable tumors were observed. At this point, the mice were injected with 4 μCi of the complex in […] of isotonic saline via the tail vein. The mice were euthanized and tissues and organs were excised from the animals at selected times post-injection (p.i.), including 15 minutes, 30 minutes, 1 hour, 4 hours, 24 hours, 48 hours, and 72 hours p.i. Subsequently, the tissues and organs were weighed and counted in a NaI well counter and the percent injected dose (% ID) and % ID/g of each organ or tissue calculated.
# The mice were injected with 4 μCi of the complex in 100 μL of isotonic saline via the tail vein. The mice were euthanized by cervical dislocation. Tissues and organs were excised from the animals following at 1 hour, 4 hour, and 24 hours post-injection (p.i.). Subsequently, the tissues and organs were weighed and counted in a NaI well counter and the percent injected dose (% ID) and % ID/g of each organ or tissue calculated.
# in vivo [2] = details: SCID, mouse, iv, 4 uCi, total radioactivity
# [3] = target: GRP receptor, human breast carcinoma T47D cells (Homo sapiens, UniProt P30550); test: biochemical
# [4] = Biodistribution of radiometal-DOTA-BBN conjugates in CF1 normal mice
compound,measurement,setting,value
"CSCC[C@H](NC(=O)[C@H](CC(C)C)NC(=O)[C@H](Cc1cnc[nH]1)NC(=O)CNC(=O)[C@@H](NC(=O)[C@H](C)NC(=O)[C@H](Cc1c[nH]c2ccccc12)NC(=O)[C@H](CCC(N)=O)NC(=O)CCCCCCCNC(=O)CN1CCN(CC(=O)O)CCN(CC(=O)O)CCN(CC(=O)O)CC1)C(C)C)C(N)=O [90Y-DOTA-8-Aoc-BBN[7-14]NH2, metal not drawn]",tissue uptake dose at 72 h,in vivo [1]; Heart,0.04 ± 0.04 %ID
"CSCC[C@H](NC(=O)[C@H](CC(C)C)NC(=O)[C@H](Cc1cnc[nH]1)NC(=O)CNC(=O)[C@@H](NC(=O)[C@H](C)NC(=O)[C@H](Cc1c[nH]c2ccccc12)NC(=O)[C@H](CCC(N)=O)NC(=O)CCCCCCCNC(=O)CN1CCN(CC(=O)O)CCN(CC(=O)O)CCN(CC(=O)O)CC1)C(C)C)C(N)=O [111In-DOTA-8-Aoc-BBN[7-14]NH2, metal not drawn]",tissue uptake at 4 h,in vivo [2]; heart,0.03 ± 0.05 %ID/g
same,tissue uptake at 24 h,in vivo [2]; muscle,0.03 ± 0.05 %ID/g
same,tissue uptake at 4 h,in vivo [2]; small intestine,1.52 ± 0.19 %ID/g
same,tissue uptake at 1 h,in vivo [2]; stomach,1.49 ± 0.68 %ID/g
same,IC50,[3],1.23 ± 0.25 nM
same,tissue uptake dose at 72 h,in vivo [1]; Tumor,0.03 ± 0.01 %ID
same,tissue uptake at 0.5 h,"in vivo [1]; Avg % ID/gm, Blood, 30 min",1.46 ± 0.44 %ID/g
same,tissue uptake at 0.25 h,"in vivo [1]; Avg % ID/gm, S. Intestine",7.82 ± 2.26 %ID/g
same,tissue uptake at 0.25 h,"in vivo [1]; Avg % ID/gm, Tumor",7.59 ± 2.11 %ID/g
same,tissue uptake at 24 h,"in vivo [1]; Avg % ID/gm, Tumor, 24 hrs",1.56 ± 0.45 %ID/g
same,tissue uptake dose at 1 h,"[4]; CF-1, mouse, in vivo, iv, total radioactivity, Avg % ID, Heart, 1 hour, Blocking (excess BBN)",0.03 ± 0.01 %ID
CSCC[C@H](NC(=O)[C@H](CC(C)C)NC(=O)[C@H](Cc1cnc[nH]1)NC(=O)CNC(=O)[C@@H](NC(=O)[C@H](C)NC(=O)[C@H](Cc1c[nH]c2ccccc12)NC(=O)[C@H](CCC(N)=O)NC(=O)CCCCCCCNC(=O)CN1CCN(CC(=O)O)CCN(CC(=O)O)CCN(CC(=O)O)CC1)C(C)C)C(N)=O [149Pm-DOTA-8-Aoc-BBN[7-14]NH2] [listing 1 of 2 here],tissue uptake at 1 h,"[4]; CF-1, mouse, in vivo, iv, total radioactivity, Avg % ID/gm, Spleen, 1 hour post-injection",1.61 ± 0.36 %ID/g
CSCC[C@H](NC(=O)[C@H](CC(C)C)NC(=O)[C@H](Cc1cnc[nH]1)NC(=O)CNC(=O)[C@@H](NC(=O)[C@H](C)NC(=O)[C@H](Cc1c[nH]c2ccccc12)NC(=O)[C@H](CCC(N)=O)NC(=O)CCCCCCCNC(=O)CN1CCN(CC(=O)O)CCN(CC(=O)O)CCN(CC(=O)O)CC1)C(C)C)C(N)=O [149Pm-DOTA-8-Aoc-BBN[7-14]NH2] [listing 2 of 2 here],"Avg % ID, Liver",[4]; 1 hour post-injection,0.35 ± 0.20 % ID
